# Measurements from article PMC7545717.
# Chains of the proteins cited; added tags and fusions are not shown. A line that says so, or that is headed by a name, gives the form on record, which may keep a tag or linker.
# LXRα (mouse hepatocyte nuclear extract) + PARP1 (mouse hepatocyte nuclear extract), one chain, as listed by the source, chain 2 of 2: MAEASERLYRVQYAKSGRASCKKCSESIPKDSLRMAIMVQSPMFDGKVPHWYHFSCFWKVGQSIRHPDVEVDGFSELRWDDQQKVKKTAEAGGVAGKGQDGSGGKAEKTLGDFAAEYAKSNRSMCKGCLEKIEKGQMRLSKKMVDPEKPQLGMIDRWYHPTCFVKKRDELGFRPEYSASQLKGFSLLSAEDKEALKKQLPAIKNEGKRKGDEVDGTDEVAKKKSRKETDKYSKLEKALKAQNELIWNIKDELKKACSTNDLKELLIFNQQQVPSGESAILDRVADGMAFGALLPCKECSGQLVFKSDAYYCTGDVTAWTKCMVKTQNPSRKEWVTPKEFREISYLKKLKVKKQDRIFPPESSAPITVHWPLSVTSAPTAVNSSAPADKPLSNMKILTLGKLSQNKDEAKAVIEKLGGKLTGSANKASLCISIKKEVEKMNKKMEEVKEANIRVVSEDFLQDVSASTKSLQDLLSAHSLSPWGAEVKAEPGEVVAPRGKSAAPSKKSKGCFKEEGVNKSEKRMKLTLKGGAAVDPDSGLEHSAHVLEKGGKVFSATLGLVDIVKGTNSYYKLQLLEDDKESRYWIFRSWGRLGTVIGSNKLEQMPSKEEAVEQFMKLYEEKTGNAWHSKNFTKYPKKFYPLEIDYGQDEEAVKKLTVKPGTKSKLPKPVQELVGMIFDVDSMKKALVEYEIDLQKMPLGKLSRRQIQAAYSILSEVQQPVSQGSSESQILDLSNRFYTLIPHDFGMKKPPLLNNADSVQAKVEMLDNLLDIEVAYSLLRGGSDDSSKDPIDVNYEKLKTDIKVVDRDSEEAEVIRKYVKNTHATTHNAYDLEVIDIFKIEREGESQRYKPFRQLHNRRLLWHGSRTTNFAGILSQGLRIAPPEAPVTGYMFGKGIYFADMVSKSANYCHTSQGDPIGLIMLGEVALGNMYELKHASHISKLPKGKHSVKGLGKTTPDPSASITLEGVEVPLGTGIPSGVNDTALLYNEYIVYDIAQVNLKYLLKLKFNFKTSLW
# LXRα (mouse hepatocyte nuclear extract) + PARP1 (mouse hepatocyte nuclear extract), one chain, as listed by the source, chain 1 of 2: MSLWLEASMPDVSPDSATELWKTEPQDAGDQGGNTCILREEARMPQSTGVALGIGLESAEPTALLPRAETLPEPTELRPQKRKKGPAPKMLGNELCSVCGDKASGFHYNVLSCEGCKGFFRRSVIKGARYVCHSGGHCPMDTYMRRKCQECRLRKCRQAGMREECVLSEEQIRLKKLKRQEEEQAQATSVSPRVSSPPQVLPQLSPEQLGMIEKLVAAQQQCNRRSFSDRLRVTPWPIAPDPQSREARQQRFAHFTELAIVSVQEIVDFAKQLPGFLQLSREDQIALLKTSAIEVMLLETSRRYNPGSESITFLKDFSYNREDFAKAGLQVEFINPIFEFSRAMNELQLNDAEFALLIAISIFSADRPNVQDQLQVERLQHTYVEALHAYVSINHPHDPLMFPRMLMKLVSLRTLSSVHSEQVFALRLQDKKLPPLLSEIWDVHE
# The exact form of at least one protein or probe is not confirmed. For part of these data: The comparison behind a weaker result is the experiment's own reference, which may not be listed here. For part of these data: Where cells or extracts were used, other partners may take part. For part of these data: At least one verdict was read from the data and is not stated in words by the source.
# Tests used:
# [1] = test system: LXRα (recombinant, Abnova) + PARP1 (recombinant, Trevigen); assay: EMSA; conditions: LightShift Chemiluminescent EMSA kit per manufacturer's protocol, recombinant protein, label: 5' biotin on each strand
# [2] = test system: LXRα (mouse hepatocyte nuclear extract) + PARP1 (mouse hepatocyte nuclear extract); assay: EMSA supershift; conditions: WT hepatocyte nuclear extract, anti-PARP1 shifts the LXRα-LXRE band; LightShift Chemiluminescent EMSA kit per manufacturer's protocol; protein in an extract; label: 5' biotin on each strand
sequence,measurement,setting,value
CAAGGATGTGTCCCTTCAACTCAATGTGGC (double strand) [LXRE consensus probe],binding result,"[1]; PARP1 + NAD+ + active (nicked) DNA, LXRα poly(ADP-ribosyl)ated",binds more weakly
same,binding result,"[1]; unactivated PARP1, no NAD+/active DNA",binds
same,binding result,[2],binds
